Test results: the supplement of paper PMC10849652
The list shows a part of the results.

Amino acid sequences for entries named in this document (tags omitted). A change or cut given only in a name is not applied to a line headed by its entry.
UniProt Q14839: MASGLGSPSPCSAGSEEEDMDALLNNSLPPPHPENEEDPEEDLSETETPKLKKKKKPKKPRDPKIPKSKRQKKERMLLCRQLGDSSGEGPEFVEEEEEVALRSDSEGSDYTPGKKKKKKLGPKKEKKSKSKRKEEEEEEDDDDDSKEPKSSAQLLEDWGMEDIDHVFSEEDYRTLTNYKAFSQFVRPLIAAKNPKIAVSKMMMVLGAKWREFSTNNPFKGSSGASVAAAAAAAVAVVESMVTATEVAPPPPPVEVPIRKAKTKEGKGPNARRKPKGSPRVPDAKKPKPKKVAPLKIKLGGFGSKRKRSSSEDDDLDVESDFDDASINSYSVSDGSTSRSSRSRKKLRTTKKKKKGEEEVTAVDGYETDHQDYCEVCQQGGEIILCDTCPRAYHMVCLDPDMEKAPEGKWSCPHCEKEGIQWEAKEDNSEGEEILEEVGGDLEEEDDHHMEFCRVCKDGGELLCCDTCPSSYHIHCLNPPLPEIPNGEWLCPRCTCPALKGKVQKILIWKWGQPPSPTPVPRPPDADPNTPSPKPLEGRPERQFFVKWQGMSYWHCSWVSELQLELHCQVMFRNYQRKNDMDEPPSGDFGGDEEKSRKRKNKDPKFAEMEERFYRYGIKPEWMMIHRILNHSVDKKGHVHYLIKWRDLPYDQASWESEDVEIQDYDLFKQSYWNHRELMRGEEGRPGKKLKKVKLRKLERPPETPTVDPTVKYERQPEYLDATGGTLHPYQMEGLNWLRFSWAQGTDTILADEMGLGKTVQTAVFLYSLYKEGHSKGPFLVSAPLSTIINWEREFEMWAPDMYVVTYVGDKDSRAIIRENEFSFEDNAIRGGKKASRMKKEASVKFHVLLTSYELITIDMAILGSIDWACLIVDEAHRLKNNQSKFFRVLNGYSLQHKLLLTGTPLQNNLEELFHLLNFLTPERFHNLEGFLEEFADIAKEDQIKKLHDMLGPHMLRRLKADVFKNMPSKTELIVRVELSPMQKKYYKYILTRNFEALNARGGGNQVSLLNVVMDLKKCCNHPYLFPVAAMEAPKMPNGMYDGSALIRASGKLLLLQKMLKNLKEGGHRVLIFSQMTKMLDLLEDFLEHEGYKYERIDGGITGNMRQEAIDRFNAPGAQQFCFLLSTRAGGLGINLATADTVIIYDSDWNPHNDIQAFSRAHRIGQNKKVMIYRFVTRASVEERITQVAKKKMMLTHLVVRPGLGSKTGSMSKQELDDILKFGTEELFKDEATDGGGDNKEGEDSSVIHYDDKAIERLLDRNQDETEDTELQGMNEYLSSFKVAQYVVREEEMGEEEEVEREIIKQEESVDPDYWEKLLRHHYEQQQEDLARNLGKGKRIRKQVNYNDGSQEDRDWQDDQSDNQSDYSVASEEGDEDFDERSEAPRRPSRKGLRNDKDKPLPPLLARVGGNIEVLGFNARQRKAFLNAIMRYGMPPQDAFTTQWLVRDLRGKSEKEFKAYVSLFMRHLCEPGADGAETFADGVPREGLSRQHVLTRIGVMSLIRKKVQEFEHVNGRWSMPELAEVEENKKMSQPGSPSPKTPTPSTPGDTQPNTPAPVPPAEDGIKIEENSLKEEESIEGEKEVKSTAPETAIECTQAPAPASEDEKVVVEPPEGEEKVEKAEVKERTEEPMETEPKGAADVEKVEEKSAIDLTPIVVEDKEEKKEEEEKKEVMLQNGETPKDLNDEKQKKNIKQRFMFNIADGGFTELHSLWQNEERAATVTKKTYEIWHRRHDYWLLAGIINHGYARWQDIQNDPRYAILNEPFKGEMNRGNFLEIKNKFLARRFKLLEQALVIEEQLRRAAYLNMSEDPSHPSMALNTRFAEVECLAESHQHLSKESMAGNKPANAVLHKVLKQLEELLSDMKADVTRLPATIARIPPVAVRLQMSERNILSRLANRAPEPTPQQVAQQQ
UniProt Q9HAW4: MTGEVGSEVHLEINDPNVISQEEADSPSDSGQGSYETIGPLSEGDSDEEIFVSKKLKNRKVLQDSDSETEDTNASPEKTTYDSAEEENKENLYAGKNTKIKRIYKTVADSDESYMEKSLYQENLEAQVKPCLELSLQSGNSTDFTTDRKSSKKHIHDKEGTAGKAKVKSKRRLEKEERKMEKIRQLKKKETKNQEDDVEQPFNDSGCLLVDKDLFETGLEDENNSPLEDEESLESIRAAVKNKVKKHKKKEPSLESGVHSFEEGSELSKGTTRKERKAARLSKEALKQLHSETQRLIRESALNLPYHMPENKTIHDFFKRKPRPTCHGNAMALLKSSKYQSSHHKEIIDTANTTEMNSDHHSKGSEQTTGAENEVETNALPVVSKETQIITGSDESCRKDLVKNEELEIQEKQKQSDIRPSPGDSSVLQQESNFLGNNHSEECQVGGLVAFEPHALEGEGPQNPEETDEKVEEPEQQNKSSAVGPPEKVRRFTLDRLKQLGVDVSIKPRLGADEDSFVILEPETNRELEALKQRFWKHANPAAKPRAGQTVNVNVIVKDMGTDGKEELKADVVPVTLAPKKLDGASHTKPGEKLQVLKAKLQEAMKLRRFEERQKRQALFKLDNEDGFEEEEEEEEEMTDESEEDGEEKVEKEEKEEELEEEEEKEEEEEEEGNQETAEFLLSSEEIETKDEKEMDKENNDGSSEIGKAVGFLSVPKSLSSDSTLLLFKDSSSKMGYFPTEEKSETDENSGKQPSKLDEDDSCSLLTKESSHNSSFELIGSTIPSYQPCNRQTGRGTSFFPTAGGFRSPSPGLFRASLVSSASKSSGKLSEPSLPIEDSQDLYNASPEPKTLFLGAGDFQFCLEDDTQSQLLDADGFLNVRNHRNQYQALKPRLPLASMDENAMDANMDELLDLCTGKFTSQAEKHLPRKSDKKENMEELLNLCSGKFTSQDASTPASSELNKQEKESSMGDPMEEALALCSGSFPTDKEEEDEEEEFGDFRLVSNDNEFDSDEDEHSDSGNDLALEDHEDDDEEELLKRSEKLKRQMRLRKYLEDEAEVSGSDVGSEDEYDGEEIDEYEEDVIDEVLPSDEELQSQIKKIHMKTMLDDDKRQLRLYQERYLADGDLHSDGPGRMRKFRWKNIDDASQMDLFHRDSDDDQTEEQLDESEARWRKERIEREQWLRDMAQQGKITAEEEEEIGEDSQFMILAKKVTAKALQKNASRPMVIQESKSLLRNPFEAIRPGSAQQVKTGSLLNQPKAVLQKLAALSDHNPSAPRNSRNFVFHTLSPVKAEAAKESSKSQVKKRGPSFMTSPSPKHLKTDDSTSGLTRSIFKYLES
UniProt Q9NRP2: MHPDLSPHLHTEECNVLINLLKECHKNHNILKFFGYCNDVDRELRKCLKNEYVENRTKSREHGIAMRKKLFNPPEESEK
UniProt Q96FZ7: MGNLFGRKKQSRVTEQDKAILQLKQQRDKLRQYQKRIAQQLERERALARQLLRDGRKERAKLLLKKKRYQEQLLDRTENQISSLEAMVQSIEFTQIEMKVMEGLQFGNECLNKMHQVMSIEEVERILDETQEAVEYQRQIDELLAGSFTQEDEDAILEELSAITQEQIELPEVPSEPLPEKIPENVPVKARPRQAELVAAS
UniProt P35790, whole entry, looked up: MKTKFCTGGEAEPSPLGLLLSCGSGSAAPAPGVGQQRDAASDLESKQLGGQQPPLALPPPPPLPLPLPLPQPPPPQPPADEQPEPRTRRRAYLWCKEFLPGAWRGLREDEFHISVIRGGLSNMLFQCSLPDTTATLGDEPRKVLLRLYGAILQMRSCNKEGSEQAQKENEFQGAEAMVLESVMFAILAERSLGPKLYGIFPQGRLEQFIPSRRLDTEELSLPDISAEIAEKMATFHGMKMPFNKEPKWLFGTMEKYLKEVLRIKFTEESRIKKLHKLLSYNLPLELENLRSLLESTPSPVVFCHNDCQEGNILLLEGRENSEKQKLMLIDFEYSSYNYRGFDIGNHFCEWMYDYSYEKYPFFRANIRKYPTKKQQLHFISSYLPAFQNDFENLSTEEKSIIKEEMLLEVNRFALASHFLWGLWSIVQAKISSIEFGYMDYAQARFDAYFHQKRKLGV
UniProt Q8IWX8: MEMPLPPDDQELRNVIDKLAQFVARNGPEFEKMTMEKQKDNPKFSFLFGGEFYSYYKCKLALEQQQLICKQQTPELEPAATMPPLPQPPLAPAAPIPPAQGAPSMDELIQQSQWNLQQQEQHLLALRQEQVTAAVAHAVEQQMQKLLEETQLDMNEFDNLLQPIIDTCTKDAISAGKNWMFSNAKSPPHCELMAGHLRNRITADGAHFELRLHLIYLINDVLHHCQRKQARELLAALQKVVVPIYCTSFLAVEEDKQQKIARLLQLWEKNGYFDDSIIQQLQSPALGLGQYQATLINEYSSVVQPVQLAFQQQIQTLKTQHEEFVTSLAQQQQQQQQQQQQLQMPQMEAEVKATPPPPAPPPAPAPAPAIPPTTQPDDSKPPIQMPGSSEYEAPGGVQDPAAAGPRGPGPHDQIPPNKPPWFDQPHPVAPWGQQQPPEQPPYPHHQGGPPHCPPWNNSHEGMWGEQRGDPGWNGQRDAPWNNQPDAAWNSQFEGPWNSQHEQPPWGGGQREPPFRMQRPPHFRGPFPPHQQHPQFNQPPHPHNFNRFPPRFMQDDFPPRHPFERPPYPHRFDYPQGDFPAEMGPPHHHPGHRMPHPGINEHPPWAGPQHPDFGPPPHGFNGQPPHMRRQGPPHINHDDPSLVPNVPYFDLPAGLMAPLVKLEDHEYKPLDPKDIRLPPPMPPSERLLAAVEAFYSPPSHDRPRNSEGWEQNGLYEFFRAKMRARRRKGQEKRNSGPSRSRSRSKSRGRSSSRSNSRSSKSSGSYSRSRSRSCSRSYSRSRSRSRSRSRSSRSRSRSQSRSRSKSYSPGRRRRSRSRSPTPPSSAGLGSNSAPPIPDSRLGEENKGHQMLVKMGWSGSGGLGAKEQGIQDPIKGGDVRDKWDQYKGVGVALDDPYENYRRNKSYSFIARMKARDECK
UniProt Q96KA5: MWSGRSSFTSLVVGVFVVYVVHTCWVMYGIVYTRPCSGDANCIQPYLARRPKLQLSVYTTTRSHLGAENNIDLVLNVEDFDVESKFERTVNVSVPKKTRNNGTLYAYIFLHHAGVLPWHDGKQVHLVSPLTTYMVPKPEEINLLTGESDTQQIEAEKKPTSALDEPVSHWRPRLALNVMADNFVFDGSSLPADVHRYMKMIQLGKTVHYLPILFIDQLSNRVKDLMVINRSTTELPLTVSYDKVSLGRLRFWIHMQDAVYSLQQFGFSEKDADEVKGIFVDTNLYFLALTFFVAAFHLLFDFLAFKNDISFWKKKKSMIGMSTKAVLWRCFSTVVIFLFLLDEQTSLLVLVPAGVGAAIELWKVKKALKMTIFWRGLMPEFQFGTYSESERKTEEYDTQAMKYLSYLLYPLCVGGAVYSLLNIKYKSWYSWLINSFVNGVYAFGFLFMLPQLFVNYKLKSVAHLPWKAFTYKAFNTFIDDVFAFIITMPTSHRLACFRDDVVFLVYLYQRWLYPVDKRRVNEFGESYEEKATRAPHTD
UniProt O75503: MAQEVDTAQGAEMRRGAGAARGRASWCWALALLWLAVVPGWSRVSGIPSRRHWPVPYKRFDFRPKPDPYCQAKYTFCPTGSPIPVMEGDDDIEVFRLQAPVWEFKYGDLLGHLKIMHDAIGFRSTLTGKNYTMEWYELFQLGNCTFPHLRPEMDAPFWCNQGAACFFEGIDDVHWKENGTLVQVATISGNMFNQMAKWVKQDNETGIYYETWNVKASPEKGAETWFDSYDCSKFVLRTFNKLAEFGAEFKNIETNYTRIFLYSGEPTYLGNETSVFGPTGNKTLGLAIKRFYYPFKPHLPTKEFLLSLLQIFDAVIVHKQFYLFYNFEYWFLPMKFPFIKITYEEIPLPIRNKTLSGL

Key:
Assay in all cases: log2 fold change, soluble protein after heating vs DMSO (PISA); higher = thermal stabilisation; K562 lysate, 10 uM; active = over 0.2 and 3.5 SD of the protein, either way, in both replicates (recomputed)
[1] = compound: C1=CC=C(C=C1)[C@H](COC2=CC3=C(C=C2)NC(=O)N3)NC(=O)C4=CC=CN(C4=O)CC5=CC(=C(C=C5)F)F
How it was run: (§1)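 Thermal stability, expressed as log-two fold change relative to solvent controls, is given from duplicates. Crude K562 extract in PBS pH 7.4 with 1 mM MgCl2, at 1 mg/mL protein, was treated with 10 μM compound for 30 min and heated in aliquots for 3 min across 48°C-58°C. After pooling, adjustment to 0.5% NP-40 at 4°C and centrifugation at 21,000xg for 90 min, supernatant protein was measured by TMTpro 16plex LC-MS/MS with channel sums equalised.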

[2] = compound: CC1=C(SC2=C1C(=N[C@H](C3=NN=C(N32)C)CC(=O)N)C4=CC=C(C=C4)Cl)C
How it was run: as §1

[3] = compound: CC1=C2C(=CC=C1)N=C(N(C2=O)C3=CC=CC=C3C)CN4C=NC5=C(N=CN=C54)N
How it was run: as §1

[4] = compound: Cc1sc2c(c1C)C(c1ccc(Cl)cc1)=N[C@@H](CC(=O)OC(C)(C)C)c1nnc(C)n1-2
How it was run: as §1

[5] = compound: c1ccc([C@@H]2C[C@H]2NC2CCNCC2)cc1
How it was run: as §1

Measured: log2 fold change

CHD4 isoform 2 (UniProt Q14839)
inactive: [1] 0 | [2] 0.003 | [3] 0.029 | [4] 0.021 | [5] 0.009

CLSPN (UniProt Q9HAW4)
inactive: [1] 0.045 | [2] -0.022 | [3] -0.051 | [4] 0.029 | [5] -0.036

CMC2 (UniProt Q9NRP2)
inactive: [1] 0.044 | [2] 0.028 | [3] 0.003 | [4] -0.04 | [5] 0.003

CHMP6 (UniProt Q96FZ7)
inactive: [1] 0.058 | [2] -0.047 | [3] 0.012 | [4] -0.009 | [5] -0.08

CHKA (UniProt P35790)
inactive: [1] 0.05 | [2] 0.037 | [3] 0.023 | [4] 0.124 | [5] 0.071

CHERP (UniProt Q8IWX8)
inactive: [1] -0.041 | [2] 0.018 | [3] -0.011 | [4] 0.003 | [5] 0.025

CLPTM1L (UniProt Q96KA5)
inactive: [1] -0.075 | [2] 0.039 | [3] 0.04 | [4] -0.02 | [5] 0.022

CLN5 (UniProt O75503)
inactive: [1] -0.02 | [2] 0.071 | [3] -0.13 | [5] 0.009
